{"source": "patent US20230270677A1", "about": "“LONG-ACTING THERAPEUTIC AGENT COMBINATIONS AND METHODS THEREOF” (University of Washington, priority 2020, published 2023)", "origin": "cited, not measured here", "settings": "listed as TFV; cited from earlier work", "note": "Some entries share one result that the patent states for a list of compounds."}
{"smiles": "C[C@H](Cn1cnc2c(N)ncnc21)OCP(=O)(O)O", "note": "[Tenofovir, [(2˜{R})-1-(6-aminopurin-9-yl)propan-2-yl]oxymethylphosphonic acid]", "values": [{"measurement": "log P", "result": "< 1"}]}
